Assay results from patent US20130336977A1.
No constants are given. Whether binding was seen depends on the method and setting. Some entries that bind do so weakly or less than the wild type.

By UniProt entry, the sequences of proteins in these tests, tags left out. Residues count along the entry.
UniProt P10747, residues 19-220: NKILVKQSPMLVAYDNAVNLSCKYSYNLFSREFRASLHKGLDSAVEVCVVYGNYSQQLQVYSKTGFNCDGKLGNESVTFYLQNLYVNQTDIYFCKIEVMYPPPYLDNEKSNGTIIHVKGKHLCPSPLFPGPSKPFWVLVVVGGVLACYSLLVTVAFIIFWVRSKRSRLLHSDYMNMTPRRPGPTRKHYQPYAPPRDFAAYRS

Biological target: CD28 (UniProt P10747)
Experiment: flow cytometry on CD28 CHO cells, protein A purified protein at 5 µg/ml

B1: 2e12 VHVL SMIP (Fc fusion, not shown: a dimerising Fc or GST)
chain: VQVQLKESGPGLVAPSQSLSITCTVSGFSLTGYGVNWVRQPPGKGLEWLGMIWGDGSTDYNSALKSRLSITKDNSKSQVFLKMNSLQTDDTARYYCARDGYSNFHYYVMDYWGQGTSVTVSSGGGGSGGGGSGGGGSGGGGSDIVLTQSPASLAVSLGQRATISCRASESVEYYVTSLMQWYQQKPGQPPKLLISAASNVESGVPARFSGSGSGTDFSLNIHPVEEDDIAMYFCQQSRKVPWTFGGGTKLEIKR
In the case of B1, the binding is reported as “binds”.
